The source of these data is patent US20180245067A1 (UNIVERSITY OF LEEDS, published 2018).

No constants are given. Whether binding was seen depends on the method and setting. Binding can be weak; no strength is given.

For the assay, the target named is penicillin binding protein 2a (PBP2a). Description: Adhiron library screen.
Consider KEQEYRVQHETITMYYLTLEAKDGGWKKLYEAKVWVKEIQGLNFKMNFK (designed binder) [SEQ ID NO 184], for which the binding entry is reported as “binds”.

Take KEQHAEAYPFTMTMYYLTLEAKDGGWKKLYEAKVWVKVYIFNWGQMNFK (designed binder) [SEQ ID NO 186]: the binding entry is “binds”.

Regarding KEQKTLDTFDGFTMYYLTLEAKDGGWKKLYEAKVWVKEIRIEFMILNFK (designed binder) [SEQ ID NO 187], the binding result is on record as “binds”.

KEQRVDQEIDEWTMYYLTLEAKDGGWKKLYEAKVWVKIFVFRWGAMNFK (designed binder) [SEQ ID NO 190]: the binding result is on record as “binds”.

In the case of KEQSQAGEWPHSTMYYLTLEAKDGGWKKLYEAKVWVKQYLGANFIANFK (designed binder) [SEQ ID NO 188], the binding entry was “binds”.

In the case of KEQTKSTVSDMETMYYLTLEAKDGGWKKLYEAKVWVKKYWISHFALNFK (designed binder) [SEQ ID NO 179], the binding entry is reported as “binds”.

Consider KEQTKSTVSDMETMYYLTLEAKDGGWKKLYEAKVWVKKYWISHFALNFK (designed binder) [SEQ ID NO 180], for which the binding result is “binds”.

As for KEQYYEQLPDSPTMYYLTLEAKDGGWKKLYEAKVWVKEMRFQHFQLNFK (designed binder) [SEQ ID NO 182], the binding entry is listed as “binds”.

As to KEQEHYKNVEPYTMYYLTLEAKDGGWKKLYEAKVWVKQMYFTYFTMNFK (designed binder) [SEQ ID NO 189], the binding entry is listed as “binds”.

KEQDFGKEVNMYTMYYLTLEAKDGGWKKLYEAKVWVKTIRGKNFMFNFK (designed binder) [SEQ ID NO 177]: the binding entry is on record as “binds”.

KEQDFGKEVNMYTMYYLTLEAKDGGWKKLYEAKVWVKTIRGKNFMFNFK (designed binder) [SEQ ID NO 178]: the binding entry is on record as “binds”.

For KEQTMYYLTLEAKDGGWKKLYEAKVWVKNFK (designed binder) [SEQ ID NO 191], the binding result is recorded as “binds”.

For the molecule KEQKSPEEYTYETMYYLTLEAKDGGWKKLYEAKVWVKRYWLKLMTLNFK (designed binder) [SEQ ID NO 185], the binding entry was “binds”.

For KEQMEQHVDILPTMYYLTLEAKDGGWKKLYEAKVWVKVYDFGHFTMNFK (designed binder) [SEQ ID NO 183], the binding result is on record as “binds”.

With KEQYYDMPEHLYTMYYLTLEAKDGGWKKLYEAKVWVKTFRFEHMVLNFK (designed binder) [SEQ ID NO 181], the binding entry is “binds”.
